This is an account of results in publication PMC3541133.

By UniProt entry, the sequences of proteins in these tests, tags left out.
UniProt P78362: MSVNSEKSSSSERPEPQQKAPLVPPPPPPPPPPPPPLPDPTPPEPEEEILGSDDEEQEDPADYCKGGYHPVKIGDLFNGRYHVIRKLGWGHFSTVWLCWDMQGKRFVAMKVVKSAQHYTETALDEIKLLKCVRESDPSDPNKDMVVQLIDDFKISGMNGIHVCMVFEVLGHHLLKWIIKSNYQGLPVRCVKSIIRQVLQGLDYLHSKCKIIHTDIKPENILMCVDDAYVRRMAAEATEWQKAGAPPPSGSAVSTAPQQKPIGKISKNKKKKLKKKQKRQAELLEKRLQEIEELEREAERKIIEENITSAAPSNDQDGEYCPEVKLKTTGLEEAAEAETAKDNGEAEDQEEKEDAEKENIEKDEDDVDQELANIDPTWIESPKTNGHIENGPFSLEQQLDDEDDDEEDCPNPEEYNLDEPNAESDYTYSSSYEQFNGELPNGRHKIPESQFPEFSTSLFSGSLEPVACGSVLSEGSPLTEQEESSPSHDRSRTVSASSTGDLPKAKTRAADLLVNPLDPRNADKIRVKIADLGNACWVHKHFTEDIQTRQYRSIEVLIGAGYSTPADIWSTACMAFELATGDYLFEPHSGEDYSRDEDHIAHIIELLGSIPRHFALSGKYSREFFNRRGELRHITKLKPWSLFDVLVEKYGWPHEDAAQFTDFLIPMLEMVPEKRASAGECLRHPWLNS

The assay addresses T1, FLAG-HA-BLRF2 (Epstein-Barr virus) (UniProt P03197).
T1 sequence: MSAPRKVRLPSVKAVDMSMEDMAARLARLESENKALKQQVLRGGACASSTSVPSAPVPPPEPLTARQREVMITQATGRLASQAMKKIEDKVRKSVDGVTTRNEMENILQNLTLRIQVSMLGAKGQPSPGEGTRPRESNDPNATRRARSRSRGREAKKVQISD
Put plainly: affinity purification with mass spectrometry; tandem affinity purification (anti-FLAG M2 agarose and FLAG peptide, then anti-HA agarose and HA peptide) from the S2 fraction (cytosol removed with digitonin, NP-40 lysis) of FLAG-HA-BLRF2 P3HR1-ZHT cells induced with 4HT for 72 hours; FLAG-HA-GFP cells as background control; LC-MS/MS.

Results are given in words; binding and its absence hold for the method and conditions named. In cells and extracts the contact can be indirect. Here binding means that the protein was enriched with, or labelled near, the bait; the list need not be complete. Tags and fused reporters may be left off the sequences shown.

Consider “SRPK2 (endogenous, P3HR1-ZHT cells) (from UniProt P78362 1-688) (enzyme)”, for which the binding result is given as “binds”.
